# Values quoted from earlier work, collected in patent US9512178B2, “Neurogenic brain-derived neurotrophic factor peptides” (Research Foundation for Mental Hygiene, Inc., priority 2012, dated 2016).
# At least one structure is not confirmed: it was looked up by name or label, or the drawing left a doubt.
# System: BDNF
# Conditions: in vivo; cited from earlier work
compound,measurement,value
[Li] [lithium],increase of BDNF concentrations in serum,30%
